In article PMC7093153 (eLife, 2020) one finds binding data, which are given here for two molecules.

Results are given in words; binding and its absence hold for the method and conditions named. Some binding calls cover weakened binding; strength is not graded here.

The target of test [1] is T1, Sfr1 (full-length, wild type) (S. pombe) (UniProt Q9USV1).
T1 sequence: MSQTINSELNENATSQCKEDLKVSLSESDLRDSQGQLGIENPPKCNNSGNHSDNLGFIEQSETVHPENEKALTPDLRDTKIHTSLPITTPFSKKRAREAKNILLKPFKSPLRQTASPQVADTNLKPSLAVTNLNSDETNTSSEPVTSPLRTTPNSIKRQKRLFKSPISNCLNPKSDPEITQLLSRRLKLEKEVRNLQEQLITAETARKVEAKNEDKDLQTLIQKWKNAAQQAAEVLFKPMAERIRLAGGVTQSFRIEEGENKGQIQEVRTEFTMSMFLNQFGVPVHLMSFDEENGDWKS
In words: co-purification.

The target in test [2] is T2, Sfr1N (N-terminal half of Sfr1, residues 1-176) (S. pombe) (UniProt Q9USV1).
T2 sequence (chain, uniformly 15N-labeled): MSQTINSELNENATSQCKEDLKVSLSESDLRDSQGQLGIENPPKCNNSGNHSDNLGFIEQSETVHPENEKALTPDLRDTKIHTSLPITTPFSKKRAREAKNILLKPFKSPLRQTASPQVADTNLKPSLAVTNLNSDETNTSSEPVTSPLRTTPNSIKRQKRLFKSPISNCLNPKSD
Briefly: NMR titration.

B1: Swi5 (protein, UniProt Q9UUB7 1-85)
chain: MEKSQLESRVHLLEQQKEQLESSLQDALAKLKNRDAKQTVQKHIDLLHTYNEIRDIALGMIGKVAEHEKCTSVELFDRFGVNGSE
In the case of B1, the binding result in test [1] is “binds”.

B2: Rad51 (S. pombe), purified (natural protein, UniProt P36601 1-365, looked up)
chain: MADTEVEMQVSAADTNNNENGQAQSNYEYDVNVQDEEDEAAAGPMPLQMLEGNGITASDIKKIHEAGYYTVESIAYTPKRQLLLIKGISEAKADKLLGEASKLVPMGFTTATEYHIRRSELITITTGSKQLDTLLQGGVETGSITELFGEFRTGKSQICHTLAVTCQLPIDMGGGEGKCLYIDTEGTFRPVRLLAVADRYGLNGEEVLDNVAYARAYNADHQLELLQQAANMMSESRFSLLVVDSCTALYRTDFSGRGELSARQMHLARFMRTLQRLADEFGIAVVITNQVVAQVDGISFNPDPKKPIGGNILAHSSTTRLSLRKGRGEQRICKIYDSPCLPESEAIFAINSDGVGDPKEIIAPV
As to B2, the binding entry in test [2] is “binds weakly”.
